# According to PubChem BioAssay AID504834 (National Center for Advancing Translational Sciences (NCATS), 2011):
# Screen size: about 320,000 compounds; about 22,000 (6.9%) were called active. The shares of active, inactive and inconclusive entries below differ from those in the screen. The call rests on the fitted dose curve; in most records, active means well fitted inhibition curve with a large enough effect; inconclusive means small, poorly fitted or top-dose-only effect, or another doubt; inactive means no such curve, though single readings can be large or run the other way. Potencies beside an inconclusive call are fits to weak or partial responses and may not hold up.
# Test: Primary qHTS for delayed death inhibitors of the malarial parasite plastid, 96 hour incubation
# Details: P. falciparum luciferase reporter growth; series mostly up to 28.7 µM
# Method in brief: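 Two parasite generations (96 h, 37 C, 5% CO2) of compound exposure in infected erythrocytes (0.05% parasitemia, 2% hematocrit). Luciferase-reporter P. falciparum; decreased luminescence indicates inhibited growth, aimed at apicoplast-acting delayed death.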
# Potency means the concentration at half of the fitted maximal effect.
row,Structure (SMILES),Potency
1,N#Cc1c(Cl)cccc1Oc1ccc(S(=O)(=O)Nc2ccccc2)cc1,"inconclusive: 11.7 µM [inhibitor, single point]"
2,COc1cccc2c1OCC(C(=O)O)C2 (configuration not stated),inactive
3,CC(C)(C)c1cc(NC(=O)NN2CCOCC2)nn1-c1c(Cl)cc(Cl)cc1Cl,"inconclusive: 4.15 µM [inhibitor, partial curve]"
4,CC(=O)CCc1ccc(OCC(O)CNC2CCCc3ccccc32)cc1 (configuration not stated),"inconclusive: 11.7 µM [inhibitor, single point]"
5,Cc1ccc(/C=N/NC(=O)c2cc(-c3ccc(C)o3)[nH]n2)cc1,inactive
6,COc1ccc(S(=O)(=O)N2CCC3(CC2)OCCN3S(=O)(=O)c2cccs2)cc1,"inconclusive: 11.7 µM [inhibitor, single point]"
7,Cc1ccc2c(c1)C(c1ccncc1)=NNC(c1ccc(C(C)C)cc1)=N2,"inconclusive: 3.7 µM [inhibitor, single point]"
8,CC(=O)Nc1ccc(NC(=O)CSc2nc(=O)n3cccc(C)c3n2)cc1,inactive
9,CCOC(=O)N1CCN(CC(O)c2ccc3c(c2)CCN3)CC1 (configuration not stated),"inconclusive: 9.28 µM [inhibitor, single point]"
10,CCOc1cccc2sc(=NC(=O)c3ccc(S(=O)(=O)N4CCOCC4)cc3)n(C)c12,"inconclusive: 2.08 µM [inhibitor, full curve, poor fit]"
11,Cc1ccc(OC(=O)c2ccc3nc(C)sc3c2)cc1,inactive
12,COCc1cc(=O)[nH]c(Nc2nc3ccccc3o2)n1,inactive
13,Cc1ccc(S(=O)(=O)/N=C2/NC(=O)/C(=C/c3ccncc3)S2)cc1,"inconclusive: 18.5 µM [inhibitor, single point]"
14,O=C(Cn1c(C(F)(F)F)nc2ccccc21)Nc1ccccc1C(=O)O,"inconclusive: 11.7 µM [inhibitor, single point]"
15,Cc1ccccc1C(=O)NCC(=O)OCCCOC(=O)CNC(=O)c1ccccc1C,inactive
16,CCC(=O)NC1(C(F)(F)F)C(=O)Nc2c1c(=O)[nH]c(=O)n2CC(C)C (configuration not stated),inactive
17,COc1ccc(NC(=S)Nc2cccc(C)n2)cc1,"inconclusive: 1.85 µM [inhibitor, full curve]"
18,COc1ccc(C(=O)N2CCCCCC2)cc1OC1CCN(C(C)C)CC1,"inconclusive: 16.5 µM [inhibitor, single point]"
19,Cn1ccnc1SCC(=O)Nc1ccc2nc(SCC(=O)NC3CC3)sc2c1,"inconclusive: 18.5 µM [inhibitor, single point]"
20,CCOC(=O)C1=C(O)/C(=C/c2cc(OC)c(O)c(OC)c2)SC1=Nc1ccc(OC)cc1,"inconclusive: 2.62 µM [inhibitor, full curve, poor fit]"
21,c1ccc(-n2cnnc2SCc2cn3ccccc3n2)cc1,"inconclusive: 8.28 µM [inhibitor, partial curve, poor fit]"
22,COC(=O)C1=C(C)NC(=O)/C1=C\c1cc(C)n(-c2ccccc2)c1C,"inconclusive: 1.47 µM [inhibitor, full curve, poor fit]"
23,O=C(Nc1cccc(S(=O)(=O)N2CCCC2)c1)c1cccc(S(=O)(=O)N2CCOCC2)c1,"inconclusive: 8.28 µM [inhibitor, partial curve]"
24,CC(NC(=O)c1cccc(Cn2cc([N+](=O)[O-])cn2)c1)c1ccc(C(C)(C)C)cc1 (configuration not stated),"inconclusive: 13.1 µM [inhibitor, partial curve, poor fit]"

row,Structure (SMILES),Potency
1,COCC(=O)/C=C1\Sc2ccccc2N1C,inactive
2,CCOC(=O)c1sc(NC(=O)C2=COCCO2)c(C#N)c1C,inactive
3,CC(=O)OCc1ccccc1Sc1ccccc1C(=O)NCc1ccccc1,"inconclusive: 18.5 µM [inhibitor, single point]"
4,CC(C)(C)C(=O)NCc1ccc(C(=O)CSc2nnc(-c3ccncc3)n2C2CC2)s1,inactive
5,CC(C)(C)OC(=O)NCCCCCNC(=O)c1[nH]cnc1C(=O)Nc1ccon1,active: 5.22 µM
6,[O-]/C(=C(\C(=S)NCCN1CCOCC1)[n+]1ccccc1)c1ccc(Cl)s1,"inconclusive: 4.65 µM [inhibitor, partial curve, poor fit]"
7,CC(C)NS(=O)(=O)c1ccc2c(c1)oc(=O)n2C,inactive
8,CCc1ccc(CCC(=O)Nc2ccccc2C(=O)O)o1,"inconclusive: 0.0033 µM [inhibitor, full curve, poor fit]"
9,CCCCNC(=O)COC(=O)C1CCN(S(=O)(=O)c2ccc3c(c2)OCCO3)CC1,inactive
10,CC(=O)c1cccc(NC(=O)N2CCCC2C(=O)Nc2cccc(C)c2C)c1 (configuration not stated),active: 2.94 µM
11,CCCC(=N)C1=C(O)CC(CC(C)SCC)CC1=O (configuration not stated),inactive
12,CCCCN(CCCC)CCn1cnc2c([nH]c3ccc(OC)cc32)c1=O,"inconclusive: 18.5 µM [inhibitor, single point]"
13,COc1ccccc1CN1CCN(C(=O)Cc2ccccc2)CC1,"inconclusive: 4.15 µM [inhibitor, partial curve]"
14,O=C(CSCc1ccccc1Br)NC1CC1,"inconclusive: 11.7 µM [inhibitor, single point]"
15,CCOC(=O)c1sc(NC(=O)c2ccccc2C(=O)O)c(C(=O)OCC)c1C,"inconclusive: 13.1 µM [inhibitor, partial curve, poor fit]"
16,O=C(c1ccccc1)N1N=C(c2ccccc2O)CC1c1ccccc1 (configuration not stated),"inconclusive: 13.1 µM [inhibitor, single point]"
17,CC(C)c1ccc(C(=O)Nc2ccc(N3CCOCC3)cc2)cc1,inactive
18,CCCCN(C)c1nc(-c2ccco2)c2c(c1C#N)CC(C)(C)OC2,active: 2.94 µM
19,CCC(=O)N1CCc2cc(S(=O)(=O)N3CCN(c4ccccc4Cl)CC3)ccc21,"inconclusive: 18.5 µM [inhibitor, single point]"
20,CC1CC(C)CN(C(=O)C(C)N2CCN(S(=O)(=O)c3cccs3)CC2)C1 (configuration not stated),inactive
21,CCOc1cc2c(cc1OCC)-n1cccc1C(c1cccc(F)c1)NC2 (configuration not stated),active: 9.28 µM
22,Cc1nc(N2CCN(C)CC2)c2c3c(sc2n1)CCCC3,inactive
23,O=C(Cn1nc(-c2ccccc2)ccc1=O)Nc1ccc(N2CCN(C(=O)c3cccs3)CC2)cc1,"inconclusive: 9.28 µM [inhibitor, single point]"

# Look-ups from the results shown:
# [O-]/C(=C(\C(=S)NCCN1CCOCC1)[n+]1ccccc1)c1ccc(Cl)s1 | Potency: inconclusive: 4.65 µM [inhibitor, partial curve, poor fit]
# CC(C)c1ccc(C(=O)Nc2ccc(N3CCOCC3)cc2)cc1 | Potency: inactive
# CC(C)(C)OC(=O)NCCCCCNC(=O)c1[nH]cnc1C(=O)Nc1ccon1 | Potency: active: 5.22 µM
# CCOc1cc2c(cc1OCC)-n1cccc1C(c1cccc(F)c1)NC2 (configuration not stated) | Potency: active: 9.28 µM
